From PubChem BioAssay AID588590 (National Center for Advancing Translational Sciences (NCATS), 2011)
The campaign covered roughly 390,000 compounds. About 4,000 (1%) were called active. Inconclusive means that the source gave no clear call. Such entries were picked first, then a sample of the others. The call rests on the fitted dose curve; in most records, active means well fitted inhibition curve with a large enough effect; inconclusive means small, poorly fitted or top-dose-only effect, or another doubt; inactive means no such curve, though single readings can be large or run the other way. A potency beside an inconclusive call is a rough fit, not a confirmed value. More than one record can exist for a structure, and the calls need not agree.

By UniProt entry, the sequences of proteins in these tests, tags left out. Where a name states a change or a piece, a line headed by the entry shows the natural chain unless it says otherwise.
UniProt Q9UNA4: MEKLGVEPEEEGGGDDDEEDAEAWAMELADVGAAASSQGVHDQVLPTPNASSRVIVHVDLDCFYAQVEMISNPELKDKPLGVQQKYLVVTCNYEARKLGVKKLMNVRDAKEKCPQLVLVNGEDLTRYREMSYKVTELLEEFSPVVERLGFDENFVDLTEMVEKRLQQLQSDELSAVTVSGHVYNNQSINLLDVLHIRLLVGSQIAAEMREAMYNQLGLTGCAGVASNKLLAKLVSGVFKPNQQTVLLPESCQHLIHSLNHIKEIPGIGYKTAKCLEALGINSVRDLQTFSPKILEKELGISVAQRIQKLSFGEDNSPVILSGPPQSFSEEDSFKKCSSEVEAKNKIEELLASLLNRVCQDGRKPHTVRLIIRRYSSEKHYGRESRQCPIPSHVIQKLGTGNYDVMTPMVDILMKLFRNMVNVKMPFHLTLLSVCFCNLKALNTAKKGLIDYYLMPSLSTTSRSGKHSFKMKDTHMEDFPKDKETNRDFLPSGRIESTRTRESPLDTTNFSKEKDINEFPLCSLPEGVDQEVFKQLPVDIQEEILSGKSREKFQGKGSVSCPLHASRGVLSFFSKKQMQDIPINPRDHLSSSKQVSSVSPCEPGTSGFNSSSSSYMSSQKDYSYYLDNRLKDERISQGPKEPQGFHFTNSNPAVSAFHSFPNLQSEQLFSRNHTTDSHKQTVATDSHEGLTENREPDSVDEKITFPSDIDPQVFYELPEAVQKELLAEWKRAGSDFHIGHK

target: DNA polymerase iota (Homo sapiens) (UniProt Q9UNA4); assay: qHTS for Inhibitors of Polymerase Iota; conditions: Pol iota fluorescent replication assay, 10 min; series mostly up to 115 µM; activity, negative = inhibition: at the top concentration
Outline: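 Pol iota at 10 nM preincubated 15 min with compounds at room temperature; reaction started with fluorescent substrate, 50 nM final. Fluorescence read kinetically at 0 and 10 min; buffer-only wells as negative control.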
Potency means the concentration at half of the fitted maximal effect.

Compound	activity, negative = inhibition	Potency
O=C(NC1CC1)c1ccc(-n2cccc2)cc1	inactive: 59.6%	
CCOC(=O)CN(C)S(=O)(=O)c1ccc(-c2cc(C(=O)OC)sc2C(F)(F)F)cc1		inconclusive: 15.8 µM [inhibitor, full curve, poor fit]
Cc1ccc(C2=CC(c3ccccc3F)n3c(nc4ccccc43)N2)cc1C (centres undefined)	inactive: -2.67%	
Cc1ccc2nc3sc(C(=O)NCc4ccco4)c(N)c3cc2c1	inactive: 6.45%	
CN=c1sc2c(n1C)C(=O)c1ccccc1C2=O		inconclusive: 12.6 µM [inhibitor, full curve, poor fit]
Cc1cc(=O)[nH]c2c(C)cc(S(=O)(=O)NCc3ccccc3)cc12		inconclusive: 79.4 µM [inhibitor, single point]
CCc1cccc(NC(=O)C2CCCN(S(=O)(=O)c3cccs3)C2)c1 (centres undefined)		active: 79.4 µM
CCOC(=O)c1nn(-c2ccc(C)cc2)c(=O)c2c(N)scc12		inconclusive: 8.91 µM [inhibitor, partial curve, poor fit]
O=C(c1cc2ccccc2cc1O)N1CCN(c2ccccc2O)CC1		inconclusive: 50.1 µM [inhibitor, partial curve, poor fit]
O=C(Cn1cnc2scc(-c3ccc(Cl)cc3)c2c1=O)N1CCOCC1		inconclusive: 17.8 µM [inhibitor, partial curve, poor fit]
Cc1ccc(S(=O)(=O)CC(=O)Nc2ccc(Cl)cn2)cc1	inactive: 99.9%	
COc1ccc(C(=O)Nc2ccc(-c3nnn(CC(=O)NCc4ccco4)n3)cc2)cc1		inconclusive: 79.4 µM [inhibitor, partial curve]
CCCCNC1=CC(=O)C(=O)c2ccccc21		inconclusive: 20 µM [inhibitor, partial curve, poor fit]
COc1cc(C(c2c(C)[nH][nH]c2=O)c2c(C)[nH][nH]c2=O)ccc1OC(=O)c1cccc(C)c1		inconclusive: 14.1 µM [inhibitor, full curve, poor fit]
Nc1ccc(N2CCCCC2)c2nonc12		inconclusive: 3.16 µM [inhibitor, full curve, poor fit]
Cc1ccccc1Nc1c(-c2ccc(Cl)s2)nc2cccc(C)n12		inconclusive: 89.1 µM [inhibitor, single point]
CCn1c(SCC(=O)NCc2ccc3c(c2)OCO3)nc2c(c1=O)SCC2		inconclusive: 14.1 µM [inhibitor, full curve, poor fit]
COc1ccc(S(=O)(=O)c2c(C)c(NS(=O)(=O)c3ccccc3)cc(C)c2O)cc1		inactive
Cc1nc(NC(=O)c2ccc([N+](=O)[O-])cc2Cl)sc1C(=O)N(C)C		inconclusive: 112 µM [inhibitor, partial curve, poor fit]

As entered above.
`CCn1c(SCC(=O)NCc2ccc3c(c2)OCO3)nc2c(c1=O)SCC2` | Potency: inconclusive: 14.1 µM [inhibitor, full curve, poor fit]
`CN=c1sc2c(n1C)C(=O)c1ccccc1C2=O` | Potency: inconclusive: 12.6 µM [inhibitor, full curve, poor fit]
